In the supplement of paper PMC10849652:
The other results are listed elsewhere or left out.

The chains behind the UniProt entries cited, without tags or fusion partners. Where a name states a change or a piece, a line headed by the entry shows the natural chain unless it says otherwise.
UniProt O43896: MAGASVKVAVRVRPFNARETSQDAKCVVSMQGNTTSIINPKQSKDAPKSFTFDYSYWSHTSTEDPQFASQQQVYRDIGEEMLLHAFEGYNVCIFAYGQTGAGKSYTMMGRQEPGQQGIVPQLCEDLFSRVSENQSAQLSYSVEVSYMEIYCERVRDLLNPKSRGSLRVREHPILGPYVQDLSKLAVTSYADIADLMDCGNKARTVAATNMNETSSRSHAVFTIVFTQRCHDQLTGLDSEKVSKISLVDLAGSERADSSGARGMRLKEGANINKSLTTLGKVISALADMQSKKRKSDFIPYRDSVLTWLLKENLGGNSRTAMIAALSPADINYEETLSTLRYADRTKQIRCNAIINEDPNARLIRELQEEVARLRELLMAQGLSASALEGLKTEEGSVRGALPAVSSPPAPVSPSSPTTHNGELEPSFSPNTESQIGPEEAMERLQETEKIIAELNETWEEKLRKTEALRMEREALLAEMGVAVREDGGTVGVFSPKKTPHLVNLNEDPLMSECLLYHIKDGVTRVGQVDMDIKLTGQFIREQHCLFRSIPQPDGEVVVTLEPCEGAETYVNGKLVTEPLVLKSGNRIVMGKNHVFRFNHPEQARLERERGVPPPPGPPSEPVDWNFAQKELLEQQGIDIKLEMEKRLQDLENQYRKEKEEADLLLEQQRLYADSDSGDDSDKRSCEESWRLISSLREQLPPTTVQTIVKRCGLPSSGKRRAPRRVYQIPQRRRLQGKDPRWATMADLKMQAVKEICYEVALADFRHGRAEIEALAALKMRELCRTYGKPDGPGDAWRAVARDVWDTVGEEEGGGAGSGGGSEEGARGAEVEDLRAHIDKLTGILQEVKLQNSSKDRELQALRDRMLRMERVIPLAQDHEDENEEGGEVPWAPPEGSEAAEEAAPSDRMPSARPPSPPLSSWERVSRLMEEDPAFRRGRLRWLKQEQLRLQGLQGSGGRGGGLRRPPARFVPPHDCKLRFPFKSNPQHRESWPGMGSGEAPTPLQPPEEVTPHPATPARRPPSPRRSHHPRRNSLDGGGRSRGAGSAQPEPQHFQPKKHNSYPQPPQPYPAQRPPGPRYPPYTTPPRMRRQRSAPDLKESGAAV
UniProt O60870: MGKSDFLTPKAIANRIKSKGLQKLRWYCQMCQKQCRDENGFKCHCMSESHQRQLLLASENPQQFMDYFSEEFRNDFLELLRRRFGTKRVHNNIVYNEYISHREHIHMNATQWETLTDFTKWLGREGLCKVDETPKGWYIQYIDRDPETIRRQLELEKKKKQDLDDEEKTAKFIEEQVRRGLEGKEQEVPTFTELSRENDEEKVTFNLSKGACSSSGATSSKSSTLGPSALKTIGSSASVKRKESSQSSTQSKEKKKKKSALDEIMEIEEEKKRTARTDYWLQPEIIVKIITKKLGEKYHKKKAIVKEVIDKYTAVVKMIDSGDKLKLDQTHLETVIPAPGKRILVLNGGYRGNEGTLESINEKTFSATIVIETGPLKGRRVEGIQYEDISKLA
UniProt Q92845: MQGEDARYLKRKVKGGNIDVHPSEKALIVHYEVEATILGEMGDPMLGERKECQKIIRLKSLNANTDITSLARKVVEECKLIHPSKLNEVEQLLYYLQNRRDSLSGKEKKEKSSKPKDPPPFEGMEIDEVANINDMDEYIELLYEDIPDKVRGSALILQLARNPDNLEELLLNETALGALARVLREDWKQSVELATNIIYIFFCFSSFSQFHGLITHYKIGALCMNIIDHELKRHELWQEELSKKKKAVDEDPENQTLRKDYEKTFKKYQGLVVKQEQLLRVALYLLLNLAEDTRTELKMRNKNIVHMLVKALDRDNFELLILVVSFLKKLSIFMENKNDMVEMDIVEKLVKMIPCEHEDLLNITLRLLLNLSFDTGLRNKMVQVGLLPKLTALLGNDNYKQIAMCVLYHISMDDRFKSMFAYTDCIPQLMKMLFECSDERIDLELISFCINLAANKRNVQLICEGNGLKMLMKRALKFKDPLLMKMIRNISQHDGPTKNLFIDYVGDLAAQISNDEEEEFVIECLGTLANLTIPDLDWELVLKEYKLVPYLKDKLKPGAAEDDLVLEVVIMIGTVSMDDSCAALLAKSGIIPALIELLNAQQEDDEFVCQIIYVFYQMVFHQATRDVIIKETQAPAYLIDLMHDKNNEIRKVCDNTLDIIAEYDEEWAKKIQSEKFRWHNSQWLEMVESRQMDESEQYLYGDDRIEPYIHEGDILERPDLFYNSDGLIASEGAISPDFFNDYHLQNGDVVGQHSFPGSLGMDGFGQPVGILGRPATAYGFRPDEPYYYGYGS
UniProt P05412, whole entry, looked up: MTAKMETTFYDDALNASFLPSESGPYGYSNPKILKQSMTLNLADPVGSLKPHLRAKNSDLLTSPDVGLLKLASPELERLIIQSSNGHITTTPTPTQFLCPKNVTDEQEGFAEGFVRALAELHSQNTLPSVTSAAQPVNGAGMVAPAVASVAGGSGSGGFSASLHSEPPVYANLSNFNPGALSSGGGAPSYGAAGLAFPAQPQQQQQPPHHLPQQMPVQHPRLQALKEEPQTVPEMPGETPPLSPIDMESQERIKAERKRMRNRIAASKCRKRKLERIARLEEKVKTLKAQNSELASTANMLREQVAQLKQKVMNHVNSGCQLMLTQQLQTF
UniProt Q9H1H9: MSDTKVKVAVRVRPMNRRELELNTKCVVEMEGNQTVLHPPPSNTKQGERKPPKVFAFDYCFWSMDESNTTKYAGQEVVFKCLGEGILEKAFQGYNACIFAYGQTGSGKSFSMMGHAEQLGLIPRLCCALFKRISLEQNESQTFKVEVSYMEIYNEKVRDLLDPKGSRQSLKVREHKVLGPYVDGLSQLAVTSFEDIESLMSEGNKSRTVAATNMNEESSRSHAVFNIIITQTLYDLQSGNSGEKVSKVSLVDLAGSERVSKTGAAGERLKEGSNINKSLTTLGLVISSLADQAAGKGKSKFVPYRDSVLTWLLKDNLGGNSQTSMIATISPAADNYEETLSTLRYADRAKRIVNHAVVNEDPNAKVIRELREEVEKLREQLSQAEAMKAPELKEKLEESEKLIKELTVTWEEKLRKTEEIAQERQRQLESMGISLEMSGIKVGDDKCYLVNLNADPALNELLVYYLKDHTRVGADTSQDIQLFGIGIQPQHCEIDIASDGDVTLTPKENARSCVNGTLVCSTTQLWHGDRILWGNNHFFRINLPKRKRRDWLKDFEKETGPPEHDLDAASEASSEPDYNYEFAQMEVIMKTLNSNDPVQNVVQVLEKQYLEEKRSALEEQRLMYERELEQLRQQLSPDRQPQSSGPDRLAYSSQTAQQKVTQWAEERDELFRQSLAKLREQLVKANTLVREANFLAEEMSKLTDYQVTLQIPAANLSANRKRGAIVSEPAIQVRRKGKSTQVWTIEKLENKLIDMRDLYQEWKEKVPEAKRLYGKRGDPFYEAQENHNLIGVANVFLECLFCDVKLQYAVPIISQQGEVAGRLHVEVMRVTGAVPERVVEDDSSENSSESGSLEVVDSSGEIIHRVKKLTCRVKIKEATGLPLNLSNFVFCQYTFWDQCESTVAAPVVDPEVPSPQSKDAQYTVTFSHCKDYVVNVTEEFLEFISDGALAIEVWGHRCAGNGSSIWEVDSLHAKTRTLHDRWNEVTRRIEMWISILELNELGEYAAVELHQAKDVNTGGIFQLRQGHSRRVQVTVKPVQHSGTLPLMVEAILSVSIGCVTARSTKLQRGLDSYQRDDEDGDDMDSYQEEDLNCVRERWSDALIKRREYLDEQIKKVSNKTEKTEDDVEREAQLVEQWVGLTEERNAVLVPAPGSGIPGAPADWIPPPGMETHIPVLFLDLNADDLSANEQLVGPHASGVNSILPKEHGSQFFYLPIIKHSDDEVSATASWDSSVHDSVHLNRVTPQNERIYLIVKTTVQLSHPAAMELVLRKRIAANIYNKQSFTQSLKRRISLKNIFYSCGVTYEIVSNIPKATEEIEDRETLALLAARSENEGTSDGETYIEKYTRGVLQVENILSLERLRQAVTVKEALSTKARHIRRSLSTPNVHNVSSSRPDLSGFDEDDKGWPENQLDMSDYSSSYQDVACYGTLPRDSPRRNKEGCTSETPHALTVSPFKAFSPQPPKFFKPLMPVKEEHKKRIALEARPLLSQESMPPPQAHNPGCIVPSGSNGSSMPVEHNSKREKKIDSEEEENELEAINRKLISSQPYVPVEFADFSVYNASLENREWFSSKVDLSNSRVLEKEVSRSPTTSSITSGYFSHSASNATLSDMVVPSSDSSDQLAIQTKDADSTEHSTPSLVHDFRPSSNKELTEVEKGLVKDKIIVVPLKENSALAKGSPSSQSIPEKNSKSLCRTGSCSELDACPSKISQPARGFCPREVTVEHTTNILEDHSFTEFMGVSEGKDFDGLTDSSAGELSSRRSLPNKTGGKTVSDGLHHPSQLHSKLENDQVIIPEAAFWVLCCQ
UniProt Q8NB78: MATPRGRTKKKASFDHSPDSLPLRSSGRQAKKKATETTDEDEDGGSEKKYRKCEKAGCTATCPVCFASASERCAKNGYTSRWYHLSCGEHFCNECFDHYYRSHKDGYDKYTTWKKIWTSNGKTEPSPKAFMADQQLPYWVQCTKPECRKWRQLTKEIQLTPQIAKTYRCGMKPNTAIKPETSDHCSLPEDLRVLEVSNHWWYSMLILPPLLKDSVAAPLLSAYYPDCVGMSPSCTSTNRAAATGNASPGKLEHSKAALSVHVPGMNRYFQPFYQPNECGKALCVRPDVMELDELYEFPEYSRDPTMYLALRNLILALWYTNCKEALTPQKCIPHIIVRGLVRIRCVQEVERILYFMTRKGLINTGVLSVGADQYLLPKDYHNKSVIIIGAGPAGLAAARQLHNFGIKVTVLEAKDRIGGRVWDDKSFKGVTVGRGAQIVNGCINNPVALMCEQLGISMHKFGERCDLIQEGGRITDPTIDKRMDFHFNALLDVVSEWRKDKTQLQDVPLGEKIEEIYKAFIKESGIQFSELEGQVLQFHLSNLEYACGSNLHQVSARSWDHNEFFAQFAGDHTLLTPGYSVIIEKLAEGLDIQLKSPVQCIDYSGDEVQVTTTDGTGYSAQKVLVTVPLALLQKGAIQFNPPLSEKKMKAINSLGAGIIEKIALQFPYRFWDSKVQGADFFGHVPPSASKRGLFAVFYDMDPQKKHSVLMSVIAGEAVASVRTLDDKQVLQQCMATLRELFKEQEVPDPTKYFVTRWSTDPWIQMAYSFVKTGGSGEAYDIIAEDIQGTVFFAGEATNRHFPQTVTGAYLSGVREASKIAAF
UniProt Q9NQR1: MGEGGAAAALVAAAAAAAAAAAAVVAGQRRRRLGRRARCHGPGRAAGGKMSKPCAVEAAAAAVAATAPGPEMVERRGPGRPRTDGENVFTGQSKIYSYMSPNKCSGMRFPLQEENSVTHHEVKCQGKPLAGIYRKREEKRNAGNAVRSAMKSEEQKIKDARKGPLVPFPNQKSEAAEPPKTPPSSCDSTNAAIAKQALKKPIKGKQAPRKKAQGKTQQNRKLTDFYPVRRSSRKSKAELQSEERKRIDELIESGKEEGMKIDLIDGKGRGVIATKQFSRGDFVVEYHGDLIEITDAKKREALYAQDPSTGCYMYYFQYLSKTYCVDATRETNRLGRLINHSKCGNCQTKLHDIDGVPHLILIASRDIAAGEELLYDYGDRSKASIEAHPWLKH
UniProt Q9H079: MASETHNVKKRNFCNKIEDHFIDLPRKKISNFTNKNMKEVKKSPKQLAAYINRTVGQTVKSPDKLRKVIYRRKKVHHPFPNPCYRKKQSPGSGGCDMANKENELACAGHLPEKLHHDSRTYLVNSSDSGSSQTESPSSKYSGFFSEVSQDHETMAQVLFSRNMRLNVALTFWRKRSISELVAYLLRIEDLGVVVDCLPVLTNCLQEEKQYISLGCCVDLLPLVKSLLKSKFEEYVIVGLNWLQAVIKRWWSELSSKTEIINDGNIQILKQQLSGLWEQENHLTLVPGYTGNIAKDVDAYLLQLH
UniProt Q6P597: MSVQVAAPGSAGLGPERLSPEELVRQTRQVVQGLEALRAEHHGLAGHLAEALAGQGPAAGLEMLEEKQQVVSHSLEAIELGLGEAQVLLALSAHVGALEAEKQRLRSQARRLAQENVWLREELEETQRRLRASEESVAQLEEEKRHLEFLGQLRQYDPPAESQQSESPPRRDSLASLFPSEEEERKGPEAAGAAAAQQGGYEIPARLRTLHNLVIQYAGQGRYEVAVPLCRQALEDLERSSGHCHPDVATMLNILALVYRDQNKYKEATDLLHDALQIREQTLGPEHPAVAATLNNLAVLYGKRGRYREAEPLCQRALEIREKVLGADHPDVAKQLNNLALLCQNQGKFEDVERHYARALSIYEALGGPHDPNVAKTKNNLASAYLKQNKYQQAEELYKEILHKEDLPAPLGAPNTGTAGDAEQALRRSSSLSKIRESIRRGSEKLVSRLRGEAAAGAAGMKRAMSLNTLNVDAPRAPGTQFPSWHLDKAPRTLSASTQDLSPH

Key:
Experiment in all cases: log2 fold change, soluble protein after heating vs DMSO (PISA); higher = thermal stabilisation; K562 cells, 10 uM, 30 min; active = over 0.2 and 3.5 SD of the protein, either way, in both replicates (recomputed)
[1] = compound: CS(=O)(=O)c1ccc(-c2cnc(N)c(C(=O)Nc3ccccc3)n2)cc1
Outline: (§1)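 Soluble protein was quantified by TMTpro 16plex LC-MS/MS after channel sums were equalised. It was obtained as the supernatant after 21,000xg for 90 min from pooled aliquots of K562 cells (2×10^6 cells/mL, 10 μM compound, 30 min) heated for 3 min across 48°C-58°C and extracted in PBS with 0.5% NP-40 at 4°C. Thermal stability values are relative to control samples and come from duplicates. They are given as log2 fold changes.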

crizotinib = compound: C[C@@H](Oc1cc(-c2cnn(C3CCNCC3)c2)cnc1N)c1c(Cl)ccc(F)c1Cl [crizotinib]
Outline: as §1

[2] = compound: C[C@H](C1=CC=C(C=C1)C(=O)NC2=C3C=CNC3=NC=C2)N
Outline: as §1

doramapimod = compound: Cc1ccc(-n2nc(C(C)(C)C)cc2NC(=O)Nc2ccc(OCCN3CCOCC3)c3ccccc23)cc1 [doramapimod]
Outline: as §1

bafetinib = compound: Cc1ccc(NC(=O)c2ccc(CN3CC[C@H](N(C)C)C3)c(C(F)(F)F)c2)cc1Nc1nccc(-c2cncnc2)n1 [bafetinib]
Outline: as §1

[3] = compound: Cn1cc(-c2ccc3c(c2)CCN3C(=O)Cc2cccc(C(F)(F)F)c2)c2c(N)ncnc21
Outline: as §1

[4] = compound: C[C@@H]1COCCN1C2=NC(=NC(=C2)C3(CC3)S(=O)(=O)C)C4=C5C=CNC5=CC=C4
Outline: as §1

duvelisib = compound: C[C@H](Nc1ncnc2nc[nH]c12)c1cc2cccc(Cl)c2c(=O)n1-c1ccccc1 [duvelisib]
Outline: as §1

[5] = compound: Cc1cc(SCc2sc(-c3ccc(C(F)(F)F)cc3)nc2C)ccc1OCC(=O)O
Outline: as §1

nilotinib = compound: Cc1cn(-c2cc(NC(=O)c3ccc(C)c(Nc4nccc(-c5cccnc5)n4)c3)cc(C(F)(F)F)c2)cn1 [nilotinib]
Outline: as §1

[6] = compound: Cc1nc(Nc2n[nH]c3c2CN(C(=O)N[C@H](CN(C)C)c2ccccc2)C3(C)C)c2sccc2n1
Outline: as §1

dasatinib = compound: Cc1nc(Nc2ncc(C(=O)Nc3c(C)cccc3Cl)s2)cc(N2CCN(CCO)CC2)n1 [dasatinib]
Outline: as §1

[7] = compound: Cc1ncc(-c2ccnc(Nc3ccc(S(C)(=O)=O)cc3)n2)n1C(C)C
Outline: as §1

tipifarnib = compound: Cn1cncc1[C@@](N)(c1ccc(Cl)cc1)c1ccc2c(c1)c(-c1cccc(Cl)c1)cc(=O)n2C [tipifarnib]
Outline: as §1

gandotinib = compound: Cc1cc(Nc2cc(CN3CCOCC3)c3nc(C)c(Cc4ccc(Cl)cc4F)n3n2)n[nH]1 [gandotinib]
Outline: as §1

[8] = compound: Cc1cccc(CC(=O)N2CCc3c2ccc(-c2cn(C)c4ncnc(N)c24)c3F)n1
Outline: as §1

ispinesib = compound: Cc1ccc(C(=O)N(CCCN)[C@@H](c2nc3cc(Cl)ccc3c(=O)n2Cc2ccccc2)C(C)C)cc1 [ispinesib]
Outline: as §1

[9] = compound: Cn1cc(-c2ccc3nnc(C(F)(F)c4ccc5ncccc5c4)n3n2)cn1
Outline: as §1

mubritinib = compound: FC(F)(F)c1ccc(/C=C/c2nc(COc3ccc(CCCCn4ccnn4)cc3)co2)cc1 [mubritinib]
Outline: as §1

tozasertib = compound: Cc1cc(Nc2cc(N3CCN(C)CC3)nc(Sc3ccc(NC(=O)C4CC4)cc3)n2)n[nH]1 [tozasertib]
Outline: as §1

Measured: log2 fold change

KIF1C (UniProt O43896)
inactive: [1] -0.105 | crizotinib -0.321 | [2] -0.083 | doramapimod 0.296 | bafetinib -0.094 | [3] 0.236

KLHL7 (UniProt Q8IXQ5)
inactive: [1] -0.047 | [4] 0.037 | [2] -0.097 | duvelisib -0.064 | [5] 0.077 | bafetinib -0.097 | nilotinib 0.205 | [6] -0.303 | dasatinib -0.142 | [7] -0.143 | [3] 0.128 | tipifarnib 0.071

KIN (UniProt O60870)
inactive: [1] 0.019 | gandotinib 0.055 | [8] -0.074

KIFAP3 (UniProt Q92845)
inactive: crizotinib -0.111 | [4] -0.173 | doramapimod 0.127 | bafetinib 0.134 | nilotinib -0.228 | [6] 0.075 | [7] 0.106

KLF1 (UniProt Q13351)
inactive: [1] -0.203 | crizotinib -0.003 | duvelisib 0.072 | gandotinib 0.069 | [5] -0.192 | doramapimod 0.093 | ispinesib -0.021 | bafetinib 0.207 | [8] 0.052 | nilotinib -0.061 | [6] 0.073 | dasatinib -0.456 | [7] -0.059 | [9] -0.12 | tipifarnib 0.02 | mubritinib -0.266

JUN (UniProt P05412)
inactive: [1] 0.141 | [2] -0.049 | tozasertib 0.043 | ispinesib -0.046 | bafetinib 0.083 | nilotinib 0.239 | [6] -0.08 | [7] -0.072 | [3] -0.158 | [9] -0.066 | mubritinib -0.151

KIF13A isoform 4 (UniProt Q9H1H9)
inactive: [1] -0.363 | [2] -0.019 | [3] 0.069

KDM1B (UniProt Q8NB78)
inactive: [1] -0.004 | crizotinib 0.069 | duvelisib 0.151 | tozasertib 0.084 | [5] -0.133 | doramapimod 0.039 | bafetinib -0.243 | nilotinib -0.11 | [6] -0.092 | dasatinib -0.599 | [7] 0.202 | mubritinib -0.077

KMT5A (UniProt Q9NQR1)
inactive: [1] 0.018 | gandotinib 0.038 | [8] -0.218

KIAA1755 (UniProt Q5JYT7)
inactive: crizotinib 0.067 | [4] -0.129 | [2] 0.241 | duvelisib 0.043 | tozasertib -0.047 | [5] -0.069 | doramapimod -0.057 | ispinesib -0.033 | bafetinib -0.054 | dasatinib -0.027 | [3] 0.144 | [9] 0.039 | tipifarnib -0.001

JMJD4 (UniProt Q9H9V9)
inactive: [1] -0.189 | crizotinib -0.206 | duvelisib -0.233 | [5] 0.053 | doramapimod -0.008 | bafetinib 0.084 | nilotinib 0.175 | [6] 0.177 | dasatinib 0.252 | [7] -0.18 | tipifarnib 0.019

KATNBL1 (UniProt Q9H079)
inactive: [1] 0.052 | [2] 0.128 | duvelisib 0.011 | gandotinib -0.046 | tozasertib -0.008 | [5] -0.087 | ispinesib 0.048 | [8] -0.05 | dasatinib -0.102 | [3] -0.065 | [9] -0.256 | tipifarnib 0.115 | mubritinib -0.032

KIF26A (UniProt Q9ULI4)
inactive: [1] 0.053 | crizotinib 0.155 | doramapimod 0.035 | ispinesib -0.023 | bafetinib -0.053 | nilotinib 0.045 | [6] -0.042 | [7] 0.007 | [9] -0.046 | tipifarnib -0.057 | mubritinib -0.013

KLC3 isoform 3 (UniProt Q6P597)
inactive: [1] 0.083 | tozasertib 0.062 | tipifarnib -0.168
